Data: publication doi:10.1101/2020.04.03.023861
Like-named read-outs stand apart in the source and are kept apart here. These are yes or no findings as the source states them, for the method shown. For some assays here: In cells and extracts the contact can be indirect. Some results given as binding are weak or reduced against the parent protein; the word gives no strength. For some assays here: Tags and fused reporters may be left off the sequences shown.

Amino acid sequences for entries named in this document (tags omitted). Residues count along the entry.
UniProt P05496, residues 62-136: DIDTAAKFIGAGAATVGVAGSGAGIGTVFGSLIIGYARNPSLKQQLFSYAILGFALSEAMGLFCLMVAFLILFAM

Experiments:
[1] = target: T1, TMEM70 (endogenous) (human (endogenous in HEK293T and 143B)) (UniProt Q9BUB7); assay: native gel or EMSA
T1 sequence: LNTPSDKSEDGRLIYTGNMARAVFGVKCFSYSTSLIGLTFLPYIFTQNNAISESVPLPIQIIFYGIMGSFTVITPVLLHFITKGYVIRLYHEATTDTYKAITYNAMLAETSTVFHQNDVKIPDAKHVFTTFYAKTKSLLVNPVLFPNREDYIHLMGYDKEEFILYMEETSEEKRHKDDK

TMEM70-FLAG (human) [2] = target: T2, TMEM70-FLAG (human) (UniProt Q9BUB7); assay: co-IP
T2 sequence: T1 sequence

[3] = target: T1, TMEM70 (endogenous) (human (endogenous in HEK293T and 143B)); assay: native gel or EMSA; remark: listed apart in the source
[4] = target: T3, TMEM70 (untagged, exogenous) (human) (UniProt Q9BUB7); assay: native gel or EMSA
T3 sequence: T1 sequence

TMEM70-FLAG (human) [5] = target: T2, TMEM70-FLAG (human); assay: native gel or EMSA
[6] = target: T1, TMEM70 (endogenous) (human (endogenous in HEK293T and 143B)); assay: native gel or EMSA; remark: listed apart in the source
TMEM70-FLAG (human) [7] = target: T2, TMEM70-FLAG (human); assay: co-IP + native gel or EMSA
TMEM70-FLAG (human) [8] = target: T2, TMEM70-FLAG (human); assay: co-IP; remark: listed apart in the source

binding [1]: binds | binding (TMEM70-FLAG (human) [2]): binds | binding [3]: binds | binding [4]: binds | binding (TMEM70-FLAG (human) [5]): binds | binding [6]: binds | binding (TMEM70-FLAG (human) [7]): binds | binding (TMEM70-FLAG (human) [8]): binds
Substance: subunit c of the ATP synthase (from UniProt P05496 62-136)
